Data: publication PMC11075139 (RSC Advances, 2024)

Assays:
[1] = test system: SH-SY5Y cells; assay: Cell viability/neurotoxicity assay; type: cell-based; conditions: Homo sapiens, read-out: cell viability
[2] = PAMPA

In the case of `COc1cc2c(cc1OC)C(=O)C(CC1CCN(Cc3ccccc3)CC1)C2` (centres unmarked) [Donepezil, reference compound], the viability at 5 µM [1] is reported as ~60% and the “Prediction of CNS penetration” value [2] is reported as “High (key: High: ‘CNS+’ (prediction of high BBB permeation); Pe (10^−6 cm s^−1) > 4.39; No: ‘CNS−’ (prediction of low BBB permeation); Pe (10^−6 cm s^−1) < 1.78)”.
